Measurements from PMC9501056.
No constants are given. Whether binding was seen depends on the method and setting. Binding seen in cells or lysates may run through a third protein.

Experiments:
[1] = target: T1, SSIIa (Oryza sativa subsp. indica cv. IR36 (endogenous in developing seeds)) (UniProt P0C586); assay: co-IP; soluble proteins of developing seeds of WT (IR36) at 15 DAF incubated with isozyme-specific antibodies and protein A magnetic beads; washed with PBS pH 7.4; Western blotting
T1 sequence: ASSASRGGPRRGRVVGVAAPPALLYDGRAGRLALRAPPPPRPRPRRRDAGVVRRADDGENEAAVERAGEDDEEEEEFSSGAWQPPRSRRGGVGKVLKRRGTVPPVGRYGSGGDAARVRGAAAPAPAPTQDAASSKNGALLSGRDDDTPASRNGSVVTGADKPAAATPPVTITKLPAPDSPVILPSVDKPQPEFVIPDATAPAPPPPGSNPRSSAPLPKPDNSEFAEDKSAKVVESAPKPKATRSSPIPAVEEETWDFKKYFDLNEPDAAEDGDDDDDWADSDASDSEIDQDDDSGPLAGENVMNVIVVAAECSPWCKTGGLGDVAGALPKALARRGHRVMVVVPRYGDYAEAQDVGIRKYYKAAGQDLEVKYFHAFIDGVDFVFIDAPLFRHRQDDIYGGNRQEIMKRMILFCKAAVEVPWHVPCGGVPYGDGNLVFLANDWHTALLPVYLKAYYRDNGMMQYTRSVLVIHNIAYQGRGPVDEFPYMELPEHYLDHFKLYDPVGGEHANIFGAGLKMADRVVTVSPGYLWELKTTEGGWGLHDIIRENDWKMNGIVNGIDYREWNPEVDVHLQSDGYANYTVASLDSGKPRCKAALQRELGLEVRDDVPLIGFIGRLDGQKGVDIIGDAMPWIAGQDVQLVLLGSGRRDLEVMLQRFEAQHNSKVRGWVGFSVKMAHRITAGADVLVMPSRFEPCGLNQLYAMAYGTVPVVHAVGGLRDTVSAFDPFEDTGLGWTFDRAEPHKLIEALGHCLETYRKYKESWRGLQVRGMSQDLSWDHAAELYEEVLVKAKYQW

[2] = target: T2, BEI (Oryza sativa subsp. indica cv. IR36 (endogenous in developing seeds)) (UniProt Q01401); assay: as above
T2 sequence: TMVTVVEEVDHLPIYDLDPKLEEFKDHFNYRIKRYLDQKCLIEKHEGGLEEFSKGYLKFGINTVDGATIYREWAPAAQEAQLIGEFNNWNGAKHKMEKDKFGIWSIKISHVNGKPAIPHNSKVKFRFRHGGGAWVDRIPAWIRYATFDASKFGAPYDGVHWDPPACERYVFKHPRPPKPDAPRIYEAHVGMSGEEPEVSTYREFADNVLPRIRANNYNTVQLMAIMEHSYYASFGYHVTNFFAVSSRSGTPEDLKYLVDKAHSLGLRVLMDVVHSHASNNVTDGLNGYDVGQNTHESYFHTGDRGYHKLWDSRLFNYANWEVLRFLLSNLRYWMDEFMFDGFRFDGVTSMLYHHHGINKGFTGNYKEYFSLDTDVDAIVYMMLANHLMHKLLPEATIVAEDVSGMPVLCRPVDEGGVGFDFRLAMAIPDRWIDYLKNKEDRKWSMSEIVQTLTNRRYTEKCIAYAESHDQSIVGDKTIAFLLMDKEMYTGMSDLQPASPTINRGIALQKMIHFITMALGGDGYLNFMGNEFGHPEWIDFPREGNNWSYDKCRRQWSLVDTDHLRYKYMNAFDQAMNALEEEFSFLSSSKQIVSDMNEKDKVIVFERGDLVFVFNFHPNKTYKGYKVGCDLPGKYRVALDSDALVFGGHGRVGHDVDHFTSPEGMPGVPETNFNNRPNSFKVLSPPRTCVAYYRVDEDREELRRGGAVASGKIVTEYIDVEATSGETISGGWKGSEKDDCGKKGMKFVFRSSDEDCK

[3] = target: SSIIIa (Oryza sativa subsp. indica cv. IR36 (endogenous in developing seeds)); assay: as above
[4] = substrate: T3, SSI (Oryza sativa subsp. indica cv. IR36 (endogenous in developing seeds)) (UniProt A2Y9M4); assay: co-IP; soluble proteins of developing seeds of WT (IR36) at 10 DAF incubated with isozyme-specific antibodies and protein A magnetic beads; washed with PBS pH 7.4; Western blotting
T3 sequence: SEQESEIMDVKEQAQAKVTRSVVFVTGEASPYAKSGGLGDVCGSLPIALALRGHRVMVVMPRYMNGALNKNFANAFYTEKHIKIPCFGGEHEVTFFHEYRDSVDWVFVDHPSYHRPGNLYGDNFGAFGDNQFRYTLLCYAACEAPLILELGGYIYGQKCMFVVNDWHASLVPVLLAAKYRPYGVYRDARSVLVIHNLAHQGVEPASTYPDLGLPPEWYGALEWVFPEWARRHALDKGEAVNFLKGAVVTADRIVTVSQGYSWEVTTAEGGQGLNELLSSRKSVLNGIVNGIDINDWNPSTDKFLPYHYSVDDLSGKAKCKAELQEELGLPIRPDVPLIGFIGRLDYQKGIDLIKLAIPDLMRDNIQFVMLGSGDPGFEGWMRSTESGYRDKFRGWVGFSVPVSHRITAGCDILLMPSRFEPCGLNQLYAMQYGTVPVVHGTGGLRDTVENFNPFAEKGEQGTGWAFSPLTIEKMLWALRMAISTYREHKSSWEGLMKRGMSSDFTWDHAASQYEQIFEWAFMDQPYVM

[5] = target: T1, SSIIa (Oryza sativa subsp. indica cv. IR36 (endogenous in developing seeds)); assay: co-IP; soluble proteins of developing seeds of the be2b mutant at 10 DAF incubated with isozyme-specific antibodies and protein A magnetic beads; washed with PBS pH 7.4; Western blotting
[6] = target: T2, BEI (Oryza sativa subsp. indica cv. IR36 (endogenous in developing seeds)); assay: as above
[7] = target: SSIIIa (Oryza sativa subsp. indica cv. IR36 (endogenous in developing seeds)); assay: as above
[8] = target: SSIIIa (Oryza sativa subsp. indica cv. IR36 (endogenous in developing seeds)); assay: co-IP; soluble proteins of developing seeds of WT (IR36) at 10 DAF incubated with isozyme-specific antibodies and protein A magnetic beads; washed with PBS pH 7.4; Western blotting

Measured: binding

B1: ISA1 (enzyme, UniProt D0TZF0 55-803)
chain: SVASAVEVGVGEDEEEGVEEEEEEVEAVVMPERYALGGACRVLAGMPAPLGATALDGGVNFAVYSAGASAASLCLFTPDDLEADEVTEEVPLDPLFNRTGNVWHVFIEGELHNMLYGYRFDGMFAPHCGQYFDVSNVVVDPYAKAVISRGEYGVPGPGGDCWPQMAGMIPLPYSTFDWQGDLPLRYPQKDLVIYEMHLRGFTKHSSSNVEHPGTYIGAISKLDYLKELGVNCVELMPCHEFNELEYFSCSSKMNFWGYSTINFFSPMIRYSSGGIRNCGRDAINEFKTFVREAHKRGIEVIMDVVFNHTAEGNEKGPILSFRGIDNSTYYMLAPKGEFYNYSGCGNTFNCNHPVVREFIVDCLRYWVTEMHVDGFRFDLASIMTRGCSLWDPVNVYGSPVEGDMTTTGTPLATPPLIDMISNDPILGDVKLIAEAWDAGGLYQVGQFPHWKIWSEWNGKYRDIVRQFIKGTDGFAGGFAECLCGSPHLYQAGGRKPWHSINFVCAHDGFTLADLVTYNKKYNSSNGEDNRDGENHNLSWNCGEEGEFAGLSVKRLRKRQMRNFFVSLMVSQGVPMFYMGDEYGHTKGGNNNTYCHDHYVNYFRWDKKEESSDLQRFCSLMTKFRKQCESLGLADFPTAQRLHWHGHQPGKPDWSETSRFVAFSTKDETKGEIYVAFNASHLPAVVGLPERPGYRWEPLVDTGKPAPYDFLTDDLPDRAHAVHLFSHFLNSNLYPMLSYSSIILELQPDD
no binding: [1] | [2] | [3] | [4] | [5] | [6] | [7] | [8]
